{"source": "PubChem BioAssay AID1508597 (Cure First, 2020)", "aim": "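Genes whose silencing sensitises or protects ovarian cancer cells against rucaparib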 (primary screen)", "system": "human ovarian carcinoma lines grown from tumours: OCI-P5x (papillary serous) and OCI-C5x (clear cell)", "reagent": "siRNA pool against human genes, 1.25 pmol siRNA per well", "timing": "72 h or 96 h, depending on the cell culture", "treatment": "rucaparib 20 µM (about IC30) or vehicle, present until read-out", "rucaparib or vehicle": "Rucaparib", "cell line": "OCI-P5x (serous)", "measured": "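Luminescent ATP-based viability assay read 72 or 96 h after transfection, depending on culture, given as normalised percent viability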", "direction": "viability, normalised: higher = more viable cells remaining", "call rule": "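Active when normalised viability falls below 80 percent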", "meaning of the calls": "active = viability under 80%; inactive = viability 80% or more", "note": "This is an unselected part of the about 2,100 reagents, in one setting of the screen. 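Calls flag viability under 80% in either arm, not effects specific to rucaparib; the reference for percent is not stated.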 Entries without a mark were called inactive. A reagent listed more than once was tested more than once; the source does not tell the runs apart. Reagent sequences are not shown. Not given: the 100% reference."}
{"gene knocked down": "VRK2", "technical replicate": "1", "viability, normalised (%)": 126}
{"gene knocked down": "VRK2", "technical replicate": "2", "viability, normalised (%)": 152}
{"gene knocked down": "VRK2", "technical replicate": "3", "viability, normalised (%)": 130}
{"gene knocked down": "NECAB3", "technical replicate": "1", "viability, normalised (%)": 107}
{"gene knocked down": "NECAB3", "technical replicate": "2", "viability, normalised (%)": 104}
{"gene knocked down": "NECAB3", "technical replicate": "3", "viability, normalised (%)": 104}
{"gene knocked down": "DDX55", "technical replicate": "1", "viability, normalised (%)": "71.2 (active)"}
{"gene knocked down": "DDX55", "technical replicate": "2", "viability, normalised (%)": "63.1 (active)"}
{"gene knocked down": "DDX55", "technical replicate": "3", "viability, normalised (%)": "77.4 (active)"}
{"gene knocked down": "EPHB3", "technical replicate": "1", "viability, normalised (%)": "58.6 (active)"}
{"gene knocked down": "EPHB3", "technical replicate": "2", "viability, normalised (%)": 80.5}
{"gene knocked down": "EPHB3", "technical replicate": "3", "viability, normalised (%)": "66.6 (active)"}
{"gene knocked down": "GDPD4", "technical replicate": "1", "viability, normalised (%)": "49.1 (active)"}
{"gene knocked down": "GDPD4", "technical replicate": "2", "viability, normalised (%)": "40.2 (active)"}
{"gene knocked down": "GDPD4", "technical replicate": "3", "viability, normalised (%)": "36.9 (active)"}
{"gene knocked down": "SMCHD1", "technical replicate": "1", "viability, normalised (%)": "58.9 (active)"}
{"gene knocked down": "SMCHD1", "technical replicate": "2", "viability, normalised (%)": "56.5 (active)"}
{"gene knocked down": "SMCHD1", "technical replicate": "3", "viability, normalised (%)": "54.3 (active)"}
{"gene knocked down": "QPCT", "technical replicate": "1", "viability, normalised (%)": "79.7 (active)"}
{"gene knocked down": "QPCT", "technical replicate": "2", "viability, normalised (%)": 96.9}
{"gene knocked down": "QPCT", "technical replicate": "3", "viability, normalised (%)": "77.6 (active)"}
{"gene knocked down": "CD40LG", "technical replicate": "1", "viability, normalised (%)": 113}
{"gene knocked down": "CD40LG", "technical replicate": "2", "viability, normalised (%)": 97}
{"gene knocked down": "CD40LG", "technical replicate": "3", "viability, normalised (%)": 94.3}
{"gene knocked down": "KHK", "technical replicate": "1", "viability, normalised (%)": "71.2 (active)"}
{"gene knocked down": "KHK", "technical replicate": "2", "viability, normalised (%)": "61.6 (active)"}
{"gene knocked down": "KHK", "technical replicate": "3", "viability, normalised (%)": "61.3 (active)"}
{"gene knocked down": "SMARCA2", "technical replicate": "1", "viability, normalised (%)": "50.2 (active)"}
{"gene knocked down": "SMARCA2", "technical replicate": "2", "viability, normalised (%)": "62 (active)"}
{"gene knocked down": "SMARCA2", "technical replicate": "3", "viability, normalised (%)": "51 (active)"}
{"gene knocked down": "NUP98", "technical replicate": "1", "viability, normalised (%)": "37.9 (active)"}
{"gene knocked down": "NUP98", "technical replicate": "1", "viability, normalised (%)": "55 (active)"}
{"gene knocked down": "NUP98", "technical replicate": "2", "viability, normalised (%)": "51.5 (active)"}
{"gene knocked down": "NUP98", "technical replicate": "2", "viability, normalised (%)": "33.7 (active)"}
{"gene knocked down": "NUP98", "technical replicate": "3", "viability, normalised (%)": "54.5 (active)"}
{"gene knocked down": "NUP98", "technical replicate": "3", "viability, normalised (%)": "35.9 (active)"}
{"gene knocked down": "CBX7", "technical replicate": "1", "viability, normalised (%)": "61.2 (active)"}
{"gene knocked down": "CBX7", "technical replicate": "2", "viability, normalised (%)": "57.9 (active)"}
{"gene knocked down": "CBX7", "technical replicate": "3", "viability, normalised (%)": "48.1 (active)"}
{"gene knocked down": "DMC1", "technical replicate": "1", "viability, normalised (%)": "79.2 (active)"}
{"gene knocked down": "DMC1", "technical replicate": "2", "viability, normalised (%)": "63.6 (active)"}
{"gene knocked down": "DMC1", "technical replicate": "3", "viability, normalised (%)": "49.9 (active)"}

Individual results from the entries so far:
Under “viability, normalised (%)”, VRK2, technical replicate 1 is entered as 126
DMC1, technical replicate 2, viability, normalised (%) → 63.6 (active)
Entry for DDX55, technical replicate 2 in “viability, normalised (%)”: 63.1 (active)
Value of CBX7, technical replicate 1 under “viability, normalised (%)”: 61.2 (active)
